Data as given in patent US20240285586A1, “METHODS FOR TREATING BACTERIAL CELL POPULATIONS” (THE HONG KONG POLYTECHNIC UNIVERSITY, priority 2021, published 2024).
For some assays here: For at least one compound, name, drawing or mass did not settle the structure. Some of these results come from one statement about several compounds together.

Legend:
[1] = tested on: E. coli BW25113 ΔpspA; format: cell-based, Escherichia coli; details: CCCP + ampicillin
Procedure: Tolerance assay. […] Standard serial dilution and plating on LB agar was performed before and after ampicillin treatment for 4 hrs, 2 days, 4 days and 6 days to determine the fraction of the test population that survived at different time points during the course of treatment.
Standard serial dilution and plating on LB agar was performed on samples collected every 24 hrs to assess changes in the size of the sub-population that survived during the treatment process.

[2] = tested on: E. coli J53 (mcr-1); experiment: MIC of colistin in presence and absence of compound, broth dilution; format: cell-based, Escherichia coli; details: antibiotic resistant E. coli (FIG. 20)

N#CC(C#N)=NNc1cccc(Cl)c1 [CCCP, carbonyl cyanide-m-chlorophenylhydrazone]
time to complete eradication [1]: ≤ 144 h

Clc1ccc(C(Cn2ccnc2)OCc2c(Cl)cccc2Cl)c(Cl)c1 (centres unmarked) [isoconazole]
effect of co-administration with colistin [2]: bactericidal synergistic effect
